# According to PubChem BioAssay AID2685 (National Center for Advancing Translational Sciences (NCATS), 2010):
# Some of the results follow. Further columns of the screen follow, without active or inactive calls. Compounds called inactive in the main read-out are mostly missing here. The note in brackets gives the kind of curve behind each potency; many fits are weak.
# Experiment: qHTS Assay for Lipid Storage Modulators in Drosophila S3 Cells;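 on cell number change: cells counted by Cell Tracker Red CMTPX staining in the red channel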
# Details: BODIPY lipid droplet fluorescence, 18-24 h; for cell number change: measured here: cell count max response, cells fed with added oleic acid
# Procedure, shortened: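 Laser-scanning cytometry quantifies lipid droplet accumulation (500–530 nm total intensity; droplet/cell object ratio) in oleic acid-fed (400 uM added) Drosophila S3 cells treated with a concentration series. 20 uM Triacsin C defined 100% inhibition.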
# [1] = measured here: cell number channel AC50, cells fed with added oleic acid
# [2] = measured here: lipid fluorescence (Fed channel) AC50, cells fed with added oleic acid
SMILES,cell number change,AC50 [1],AC50 [2]
CC(=O)Nc1ccc(NC(=O)C(C)OC(=O)CNC(=O)c2cccs2)cc1 (centres undefined),-43.8%,"13 µM [falling, partial curve, poor fit]","23.1 µM [falling, partial curve, poor fit]"
Cc1ccc(C(=O)OCC(=O)N(CCc2ccccc2)Cc2ccccc2)cc1S(=O)(=O)N1CCOCC1,–,"6.51 µM [rising, single point]",–
Cc1cccc(NC(=O)c2ccc(S(=O)(=O)N3CCCCC3)cc2)n1,-18.1%,"0.00651 µM [falling, full curve, poor fit]",–
O=C(Cn1[nH]c(=O)c2ccccc2c1=O)Nc1cccc(-c2nnc3n2CCCCC3)c1,7.36%,–,"0.164 µM [falling, full curve, poor fit]"
CC(C)NS(=O)(=O)c1cc(C(=O)O)ccc1Cl,38.4%,"16.4 µM [rising, single point]","20.6 µM [rising, single point]"
CCOC(=O)Cc1c(C)c2c(O)cc(O)cc2oc1=O,–,–,"0.411 µM [falling, single point]"
O=C(c1nnc(-c2ccc(Cl)cc2)o1)C1CCCC1,73.2%,"18.4 µM [rising, single point]",–
Cc1[nH]c(C)c(S(=O)(=O)N2CCN(c3cccc(Cl)c3)CC2)c1C(=O)N1CCCC1,4.45%,–,–
CC(C)(C)CN1CCC(n2nccc2NC(=O)c2ccccc2Cl)CC1,-17.8%,–,"6.51 µM [falling, single point]"
COc1ccc2nc(SCCN(C)C)[nH]c2c1,-9.79%,–,"2.31 µM [falling, partial curve]"
CC(=O)Nc1cccc([N+](=O)[O-])c1,5.89%,"6.51 µM [falling, single point]","6.51 µM [falling, single point]"
Nc1c(Cl)cc(-c2cn(CCC(=O)O)c(-c3ccc(Cl)nc3)n2)cc1Cl,10.6%,–,"11.6 µM [rising, partial curve, poor fit]"
O=C(Nc1nccs1)c1ccc(-c2ccccc2[N+](=O)[O-])o1,-2.8%,–,"20.6 µM [falling, single point]"
Cc1ccnc(NC(c2ccccn2)c2c(C)[nH]c3ccccc23)c1 (centres undefined),-41.9%,"20 µM [falling, partial curve, poor fit]","22.4 µM [falling, single point]"
CCSc1nnc(NC(=O)CN2C(=O)NC3(CCCC3)C2=O)s1,-3.95%,–,–
CSc1nc2nc3c(c(=O)n2[nH]1)CCC3,13.9%,–,–
O=C(Nc1ccc(N2CCN(C(=O)c3ccco3)CC2)c(Cl)c1)c1cccs1,–,"0.82 µM [rising, partial curve]","1.46 µM [rising, partial curve]"
CCCc1cc(=O)n2[nH]c(NCc3ccc(Cl)cc3Cl)nc2n1,-2.02%,–,"0.13 µM [falling, full curve, poor fit]"
CCOc1ccccc1NC(=O)NCc1ccccc1,-22.3%,"0.731 µM [falling, single point]","23.1 µM [falling, partial curve, poor fit]"

# Full records, looked up by structure. Order of values: cell number change | AC50 [1] | AC50 [2]
# `Cc1ccnc(NC(c2ccccn2)c2c(C)[nH]c3ccccc23)c1` (centres undefined) is listed as -41.9% | 20 µM [falling, partial curve, poor fit] | 22.4 µM [falling, single point]
# `O=C(Nc1ccc(N2CCN(C(=O)c3ccco3)CC2)c(Cl)c1)c1cccs1` is listed as – | 0.82 µM [rising, partial curve] | 1.46 µM [rising, partial curve]
# `Cc1cccc(NC(=O)c2ccc(S(=O)(=O)N3CCCCC3)cc2)n1` is listed as -18.1% | 0.00651 µM [falling, full curve, poor fit] | –
# `CSc1nc2nc3c(c(=O)n2[nH]1)CCC3` is listed as 13.9% | – | –

# Next compounds

SMILES,cell number change,AC50 [1],AC50 [2]
CCOC(=O)c1c(C)[nH]c(N=Nc2cccc(C)c2)c1C,-92.3%,"5.8 µM [falling, full curve]",–
COC(=O)c1ccc2c(c1)sc(=NC(=O)CCS(=O)(=O)c1ccccc1)n2C,–,–,"4.11 µM [rising, partial curve, poor fit]"
O=C(COC(=O)CCOc1ccccc1)Nc1ccc(Cl)cn1,-18.5%,"0.146 µM [falling, full curve, poor fit]","1.64 µM [falling, partial curve]"
CCn1c(C)c(C(C)=O)c(N2CCN(c3ccccn3)CC2)nc1=S,5.19%,–,–
CCOc1ccc(N(C(=O)c2cc3ccccc3oc2=O)C2C=CS(=O)(=O)C2)cc1 (centres undefined),14.8%,–,"6.51 µM [falling, single point]"
CCOc1ccccc1N(C)S(=O)(=O)c1ccc2[nH]cc(C(=O)N(CCOC)CCOC)c(=O)c2c1,-16.3%,"5.17 µM [rising, single point]",–
Cc1cccc(-n2cccc2)c1C#N,115%,"0.82 µM [rising, single point]",–
Cc1n[nH]c(C)c1Sc1ccccc1N=Cc1cc([N+](=O)[O-])ccc1O,42.7%,"5.8 µM [rising, full curve, poor fit]","6.51 µM [rising, single point]"
CCOC(=O)c1cnc2nc(NCc3ccc(OCc4ccccc4)cc3)[nH]n2c1=O,-69%,"29.1 µM [falling, single point]","29.1 µM [falling, single point]"
CN(CC(=O)Nc1cccc(F)c1)C(=O)c1ccc(N2CCOCC2)c([N+](=O)[O-])c1,-10.2%,–,–
O=C(/C(Cl)=C/Nc1ccc(Br)cn1)C(F)(F)F,-40.2%,"29.1 µM [falling, single point]",–
CCc1cccc(OCCOC(=O)CNS(=O)(=O)c2ccc(NC(C)=O)cc2)c1,5.5%,–,–
CCOC(=O)c1cnc(-n2nc(C)cc2C)nc1NCc1ccc2c(c1)OCO2,-50.9%,"29.1 µM [falling, single point]","0.461 µM [rising, partial curve, poor fit]"
Cc1sc(-n2c(C)cc(C=O)c2C)c(C(=O)O)c1C,35.7%,"23.1 µM [rising, partial curve, poor fit]","3.66 µM [falling, full curve]"
Cn1nc(C(=O)OCC(=O)Nc2ccc(Cl)cc2Cl)c2ccccc2c1=O,-11.9%,–,–
Cc1cc(S(=O)(=O)Nc2ccc(C(=O)NCC3(N4CCCCC4)CCCCC3)cc2)ccc1F,-32.3%,"3.66 µM [falling, full curve]","4.11 µM [falling, full curve]"
CCCCCn1c(CN2CCN(c3cccc(Cl)c3)CC2)nc2c1c(=O)n(C)c(=O)n2C,-26.7%,–,"0.731 µM [rising, full curve]"
CCCOc1ccc(C(=O)CCNC(Cc2c[nH]c3ccccc23)C(=O)O)cc1 (centres undefined),-14.8%,–,"11.6 µM [falling, single point]"
Cc1cc(NC(=O)CSc2nc3c(c(-c4cccnc4)c2C#N)CCC3)no1,3.83%,–,"0.82 µM [rising, partial curve]"

SMILES,cell number change,AC50 [1],AC50 [2]
CSC(=S)N/N=C/c1ccc(N(C)C)cc1,15.4%,–,–
CC(C)(C)c1ccc(S(=O)(=O)Nc2ccc(Cc3ccncc3)cc2)cc1,-16.7%,"3.66 µM [falling, single point]",–
CCn1c(=N)n(CC(=O)c2cccc([N+](=O)[O-])c2)c2ccccc21,-17.7%,–,"0.00461 µM [falling, full curve, poor fit]"
COC(=O)[C@@]1(Cc2ccc(F)cc2)[C@H]2c3cc(C(=O)N4CCCC4)n(CCCNc4ncc(C(F)(F)F)cc4Cl)c3C[C@H]2CN1C(=O)c1ccccc1,-6.89%,–,–
COc1ccc(-c2nc3ccccc3c(=O)n2NC(=O)Cc2ccccc2)cc1,-11.1%,–,"29.1 µM [falling, single point]"
O=C(c1cccs1)N(CCO)Cc1cc2cc3c(cc2[nH]c1=O)OCCO3,4.42%,"0.082 µM [falling, full curve, poor fit]",–
Cn1c(O)c(N=Nc2ccc(F)cc2)c2ccccc21,28.7%,"1.3 µM [rising, full curve]","1.46 µM [rising, partial curve]"
O=c1nc2n(c3ccc([N+](=O)[O-])cc13)CCCCC2,-29.4%,–,–
O=S(=O)(ON(c1ccccc1)S(=O)(=O)c1ccccc1)c1ccccc1,6.38%,–,"0.651 µM [falling, single point]"
Cc1ccc(NC(=O)Cn2cccc2)c(Br)c1,-33.6%,–,–
Cc1ccc(CNC(=O)Cn2c(=O)n(CC(=O)N3CCCCC3)c(=O)c3sccc32)cc1,-70.3%,"14.6 µM [falling, partial curve]","5.17 µM [falling, single point]"
O=c1c2c3nc4ccccc4nc3n(Cc3ccccc3)c2ncn1Cc1ccco1,-41.6%,"10.3 µM [falling, partial curve]",–
CCN(CC(=O)Nc1cc(Cl)ccc1C)C(=O)c1oc2ccc(OC)cc2c1C,118%,"4.11 µM [rising, full curve]",–
O=C(OCc1cccnc1)C1=Cc2ccccc2OC1,33.5%,"13 µM [rising, partial curve, poor fit]","29.1 µM [rising, single point]"
COc1ccccc1OCCCC(=O)Nc1nnc(C2CCCO2)s1 (centres undefined),40.6%,"8.2 µM [rising, partial curve, poor fit]","5.8 µM [rising, single point]"
Cc1ccc(S(=O)(=O)N2CCN(CC(=O)N/N=C\c3ccc(Cl)c([N+](=O)[O-])c3)CC2)cc1,-14.8%,–,"16.4 µM [falling, single point]"
O=C(NCc1ccccn1)C(=O)Nc1nc(-c2ccccc2)cs1,21.7%,–,"4.61 µM [rising, partial curve, poor fit]"
CN1CCN(C(=O)c2ccc3c(c2)N(Cc2ccccc2F)C(=O)c2ccccc2S3=O)CC1 (centres undefined),0.288%,–,"0.731 µM [rising, full curve]"
O=C(O)c1ccc([N+](=O)[O-])c(CS(=O)(=O)c2ccccc2)c1,–,–,"0.731 µM [falling, full curve]"
